At least one compound was matched to its structure with a doubt left.
Key:
TRPV1 = assay: Selectivity profile: TRPV1; format: binding; settings: tested at a multiple of the FAAH IC50
Experimental: (§1) The compounds of the present invention were also evaluated with regard to their selectivity profile against the following targets: AMT, NAPE-PLD, MAGL, DAGL, CB1/CB2 and TRPV1 according to the procedures described in Maccarrone M., et al., J. Biol. Chem., 2000, 275, 13484, Fezza F., et al., Anal Biochem., 2005, 339, 113, Dinh T. P., et al., 2002, Proc. Natl. Acad. Sci. 99, 10819, Bisogno T., et al., 2003, J. Cell Biol., 163, 463, Maccarrone M., et al., J. Biol. Chem., 2000, 275, 31938, Ross R. A., et al., Br. J. Pharmacol., 2001, 132, 631.

DAGL = assay: Selectivity profile: DAGL; format: biochemical; settings: tested at a multiple of the FAAH IC50
Experimental: as §1

Cc1cc(C(N)=O)c(-c2cccc(OC(=O)NCCCCCCc3ccccc3)c2)s1 [Example 7, (6-phenyl-hexyl)-carbamic acid 3-(3-carbamoyl-5-methyl-thiophen-2-yl)-phenyl ester]
inhibitory activity on TRPV1 (TRPV1): −−−− (1000 times [IC50] with an inhibitory activity on the target <60%) | inhibitory activity on DAGL (DAGL): −−−− (1000 times [IC50] with an inhibitory activity on the target <60%)
